PubChem BioAssay AID1224827, NIAID – 2016

Aim: 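Confirm genes whose knock-down changes LPS-driven TNF promoter activity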 (follow-up of hits)
Cells: RAW264.7 G9 mouse macrophage reporter clone
Knock-down reagent: single siRNA against mouse genes, 100 nM siRNA
Duration: siRNA for 2 days, then LPS about 16 h
Challenge: bacterial lipopolysaccharide (LPS), 10 ng/ml, cells fixed after overnight (about 16 h) stimulation
Measurement: 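Imaged nuclear TNF reporter intensity, background removed, scaled per plate and to non-targeting control wells, as z-scores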
Scale: TNF reporter z-score, mean and TNF reporter z-score: higher = stronger Tnf promoter reporter signal; gene median z, three same-vendor siRNAs: higher = stronger Tnf reporter signal for the gene
Call rule: 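Active siRNA: replicate-mean z-score of 2 or more, or -2 or less; no calls for control wells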
The deposit covers about 3,800 reagents; this is an unselected part. In the full data, about 2,200 (57%) got an active call. 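Active means a strong reporter change in either direction; calls are per siRNA, not per gene; qiagen siRNAs gave weaker effects.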 Unmarked entries are inactive. The numbers tell different reagents against one gene apart. Reagent sequences are not shown.

gene knocked down | reagent no. | TNF reporter z-score, mean | gene median z, three same-vendor siRNAs | TNF reporter z-score, repeat 1 | TNF reporter z-score, repeat 2
Cyth2 (GeneID 19158) | 1 | 0.637 | -3.2 | 1.11 | 0.166
Cyth2 (GeneID 19158) | 2 | -3.28 (active) | -3.2 | -3.24 | -3.31
Cyth2 (GeneID 19158) | 3 | -3.42 (active) | -3.2 | -3.68 | -3.15
Cyth2 (GeneID 19158) | 4 | 1.11 | -1.38 | 2.54 | -0.329
Cyth2 (GeneID 19158) | 5 | -1.68 | -1.38 | -2.4 | -0.971
Cyth2 (GeneID 19158) | 6 | -2.36 (active) | -1.38 | -1.8 | -2.92
Dync1i2 (GeneID 13427) | 1 | 1.58 | -2.48 | 0.337 | 2.82
Dync1i2 (GeneID 13427) | 2 | -2.48 (active) | -2.48 | -2.9 | -2.05
Dync1i2 (GeneID 13427) | 3 | -4.64 (active) | -2.48 | -4.56 | -4.72
Dync1i2 (GeneID 13427) | 4 | -0.57 | -1.29 | -0.0198 | -1.12
Dync1i2 (GeneID 13427) | 5 | -1.37 | -1.29 | -2.07 | -0.669
Dync1i2 (GeneID 13427) | 6 | -1.47 | -1.29 | -1.47 | -1.46
Tuba3b (GeneID 22147) | 1 | -2.24 (active) | -2.7 | -2.46 | -2.02
Tuba3b (GeneID 22147) | 2 | -2.76 (active) | -2.7 | -3.03 | -2.5
Tuba3b (GeneID 22147) | 3 | -2.99 (active) | -2.7 | -2.9 | -3.08
Tuba3b (GeneID 22147) | 4 | 2.45 (active) | 1.61 | 4.36 | 0.546
Tuba3b (GeneID 22147) | 5 | 2.06 (active) | 1.61 | 4.18 | -0.0538
Tuba3b (GeneID 22147) | 6 | 0.43 | 1.61 | 2.67 | -1.81
Il24 (GeneID 93672) | 1 | -0.362 | -1.98 | -1.83 | 1.11
Il24 (GeneID 93672) | 2 | -1.51 | -1.98 | -0.903 | -2.13
Il24 (GeneID 93672) | 3 | -4.02 (active) | -1.98 | -5.32 | -2.72
Il24 (GeneID 93672) | 4 | 2.16 (active) | -0.594 | 4.56 | -0.238
Il24 (GeneID 93672) | 5 | 0.634 | -0.594 | 2.22 | -0.95
Il24 (GeneID 93672) | 6 | -2.33 (active) | -0.594 | -2.71 | -1.94

Part of the list above, set out differently.
gene knocked down	reagent no.	TNF reporter z-score, mean	gene median z, three same-vendor siRNAs	TNF reporter z-score, repeat 1	TNF reporter z-score, repeat 2
Cyth2 (GeneID 19158)	1	0.637	-3.2	1.11	0.166
Cyth2 (GeneID 19158)	2	-3.28 (active)	-3.2	-3.24	-3.31
Cyth2 (GeneID 19158)	3	-3.42 (active)	-3.2	-3.68	-3.15
